Results are given in words; binding and its absence hold for the method and conditions named. In cells and extracts the contact can be indirect. Some results given as binding are weak or reduced against the parent protein; the word gives no strength.
Target: CD47 (human (endogenous in PC-3 and DU145)) (UniProt Q08722)
Assay: co-IP; immunoprecipitation in lysates of PC-3 and DU145 cells with ZDHHC2 and CD47 antibodies; Western blot

Chains of the proteins cited; added tags and fusions are not shown. Residues count along the entry.
UniProt Q08722, residues 19-323: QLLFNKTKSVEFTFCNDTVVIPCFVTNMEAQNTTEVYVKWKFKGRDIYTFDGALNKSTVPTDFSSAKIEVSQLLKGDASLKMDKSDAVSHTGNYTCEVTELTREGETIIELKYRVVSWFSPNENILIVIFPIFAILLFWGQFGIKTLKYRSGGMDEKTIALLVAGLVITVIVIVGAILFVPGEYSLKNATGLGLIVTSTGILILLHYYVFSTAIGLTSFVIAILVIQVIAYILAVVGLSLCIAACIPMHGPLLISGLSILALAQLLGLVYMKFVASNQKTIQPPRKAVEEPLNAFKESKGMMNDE
UniProt Q9UIJ5: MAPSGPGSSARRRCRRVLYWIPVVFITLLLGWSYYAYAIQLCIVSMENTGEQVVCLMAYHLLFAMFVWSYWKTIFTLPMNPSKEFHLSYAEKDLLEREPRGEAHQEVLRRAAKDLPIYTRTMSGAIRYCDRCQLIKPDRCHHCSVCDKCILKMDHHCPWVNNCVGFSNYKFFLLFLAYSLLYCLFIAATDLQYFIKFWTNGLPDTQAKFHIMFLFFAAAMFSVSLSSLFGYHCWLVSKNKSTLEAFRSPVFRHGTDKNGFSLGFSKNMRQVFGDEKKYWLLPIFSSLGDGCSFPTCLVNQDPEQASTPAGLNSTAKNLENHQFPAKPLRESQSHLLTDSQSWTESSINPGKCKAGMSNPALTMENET

binding: binds
Substance: ZDHHC2 (from UniProt Q9UIJ5 1-367) (enzyme)
